The other results are listed elsewhere or left out.
Compound: COc1ccc(Cn2ccc3ccc(C(=O)NO)cc32)cc1
Assay: dose-dependent thermal stabilisation call (2D-TPP, DLPTP, 10% FDR) (binary (1 = stabilised)); higher = stabilised by the compound
Conditions: system: HL-60 intact cells; concentration range 0.04-10 µM

Sequences of proteins named here, by UniProt entry; tags and fusion partners are left off. A change or cut given only in a name is not applied to a line headed by its entry.
UniProt Q9NU22: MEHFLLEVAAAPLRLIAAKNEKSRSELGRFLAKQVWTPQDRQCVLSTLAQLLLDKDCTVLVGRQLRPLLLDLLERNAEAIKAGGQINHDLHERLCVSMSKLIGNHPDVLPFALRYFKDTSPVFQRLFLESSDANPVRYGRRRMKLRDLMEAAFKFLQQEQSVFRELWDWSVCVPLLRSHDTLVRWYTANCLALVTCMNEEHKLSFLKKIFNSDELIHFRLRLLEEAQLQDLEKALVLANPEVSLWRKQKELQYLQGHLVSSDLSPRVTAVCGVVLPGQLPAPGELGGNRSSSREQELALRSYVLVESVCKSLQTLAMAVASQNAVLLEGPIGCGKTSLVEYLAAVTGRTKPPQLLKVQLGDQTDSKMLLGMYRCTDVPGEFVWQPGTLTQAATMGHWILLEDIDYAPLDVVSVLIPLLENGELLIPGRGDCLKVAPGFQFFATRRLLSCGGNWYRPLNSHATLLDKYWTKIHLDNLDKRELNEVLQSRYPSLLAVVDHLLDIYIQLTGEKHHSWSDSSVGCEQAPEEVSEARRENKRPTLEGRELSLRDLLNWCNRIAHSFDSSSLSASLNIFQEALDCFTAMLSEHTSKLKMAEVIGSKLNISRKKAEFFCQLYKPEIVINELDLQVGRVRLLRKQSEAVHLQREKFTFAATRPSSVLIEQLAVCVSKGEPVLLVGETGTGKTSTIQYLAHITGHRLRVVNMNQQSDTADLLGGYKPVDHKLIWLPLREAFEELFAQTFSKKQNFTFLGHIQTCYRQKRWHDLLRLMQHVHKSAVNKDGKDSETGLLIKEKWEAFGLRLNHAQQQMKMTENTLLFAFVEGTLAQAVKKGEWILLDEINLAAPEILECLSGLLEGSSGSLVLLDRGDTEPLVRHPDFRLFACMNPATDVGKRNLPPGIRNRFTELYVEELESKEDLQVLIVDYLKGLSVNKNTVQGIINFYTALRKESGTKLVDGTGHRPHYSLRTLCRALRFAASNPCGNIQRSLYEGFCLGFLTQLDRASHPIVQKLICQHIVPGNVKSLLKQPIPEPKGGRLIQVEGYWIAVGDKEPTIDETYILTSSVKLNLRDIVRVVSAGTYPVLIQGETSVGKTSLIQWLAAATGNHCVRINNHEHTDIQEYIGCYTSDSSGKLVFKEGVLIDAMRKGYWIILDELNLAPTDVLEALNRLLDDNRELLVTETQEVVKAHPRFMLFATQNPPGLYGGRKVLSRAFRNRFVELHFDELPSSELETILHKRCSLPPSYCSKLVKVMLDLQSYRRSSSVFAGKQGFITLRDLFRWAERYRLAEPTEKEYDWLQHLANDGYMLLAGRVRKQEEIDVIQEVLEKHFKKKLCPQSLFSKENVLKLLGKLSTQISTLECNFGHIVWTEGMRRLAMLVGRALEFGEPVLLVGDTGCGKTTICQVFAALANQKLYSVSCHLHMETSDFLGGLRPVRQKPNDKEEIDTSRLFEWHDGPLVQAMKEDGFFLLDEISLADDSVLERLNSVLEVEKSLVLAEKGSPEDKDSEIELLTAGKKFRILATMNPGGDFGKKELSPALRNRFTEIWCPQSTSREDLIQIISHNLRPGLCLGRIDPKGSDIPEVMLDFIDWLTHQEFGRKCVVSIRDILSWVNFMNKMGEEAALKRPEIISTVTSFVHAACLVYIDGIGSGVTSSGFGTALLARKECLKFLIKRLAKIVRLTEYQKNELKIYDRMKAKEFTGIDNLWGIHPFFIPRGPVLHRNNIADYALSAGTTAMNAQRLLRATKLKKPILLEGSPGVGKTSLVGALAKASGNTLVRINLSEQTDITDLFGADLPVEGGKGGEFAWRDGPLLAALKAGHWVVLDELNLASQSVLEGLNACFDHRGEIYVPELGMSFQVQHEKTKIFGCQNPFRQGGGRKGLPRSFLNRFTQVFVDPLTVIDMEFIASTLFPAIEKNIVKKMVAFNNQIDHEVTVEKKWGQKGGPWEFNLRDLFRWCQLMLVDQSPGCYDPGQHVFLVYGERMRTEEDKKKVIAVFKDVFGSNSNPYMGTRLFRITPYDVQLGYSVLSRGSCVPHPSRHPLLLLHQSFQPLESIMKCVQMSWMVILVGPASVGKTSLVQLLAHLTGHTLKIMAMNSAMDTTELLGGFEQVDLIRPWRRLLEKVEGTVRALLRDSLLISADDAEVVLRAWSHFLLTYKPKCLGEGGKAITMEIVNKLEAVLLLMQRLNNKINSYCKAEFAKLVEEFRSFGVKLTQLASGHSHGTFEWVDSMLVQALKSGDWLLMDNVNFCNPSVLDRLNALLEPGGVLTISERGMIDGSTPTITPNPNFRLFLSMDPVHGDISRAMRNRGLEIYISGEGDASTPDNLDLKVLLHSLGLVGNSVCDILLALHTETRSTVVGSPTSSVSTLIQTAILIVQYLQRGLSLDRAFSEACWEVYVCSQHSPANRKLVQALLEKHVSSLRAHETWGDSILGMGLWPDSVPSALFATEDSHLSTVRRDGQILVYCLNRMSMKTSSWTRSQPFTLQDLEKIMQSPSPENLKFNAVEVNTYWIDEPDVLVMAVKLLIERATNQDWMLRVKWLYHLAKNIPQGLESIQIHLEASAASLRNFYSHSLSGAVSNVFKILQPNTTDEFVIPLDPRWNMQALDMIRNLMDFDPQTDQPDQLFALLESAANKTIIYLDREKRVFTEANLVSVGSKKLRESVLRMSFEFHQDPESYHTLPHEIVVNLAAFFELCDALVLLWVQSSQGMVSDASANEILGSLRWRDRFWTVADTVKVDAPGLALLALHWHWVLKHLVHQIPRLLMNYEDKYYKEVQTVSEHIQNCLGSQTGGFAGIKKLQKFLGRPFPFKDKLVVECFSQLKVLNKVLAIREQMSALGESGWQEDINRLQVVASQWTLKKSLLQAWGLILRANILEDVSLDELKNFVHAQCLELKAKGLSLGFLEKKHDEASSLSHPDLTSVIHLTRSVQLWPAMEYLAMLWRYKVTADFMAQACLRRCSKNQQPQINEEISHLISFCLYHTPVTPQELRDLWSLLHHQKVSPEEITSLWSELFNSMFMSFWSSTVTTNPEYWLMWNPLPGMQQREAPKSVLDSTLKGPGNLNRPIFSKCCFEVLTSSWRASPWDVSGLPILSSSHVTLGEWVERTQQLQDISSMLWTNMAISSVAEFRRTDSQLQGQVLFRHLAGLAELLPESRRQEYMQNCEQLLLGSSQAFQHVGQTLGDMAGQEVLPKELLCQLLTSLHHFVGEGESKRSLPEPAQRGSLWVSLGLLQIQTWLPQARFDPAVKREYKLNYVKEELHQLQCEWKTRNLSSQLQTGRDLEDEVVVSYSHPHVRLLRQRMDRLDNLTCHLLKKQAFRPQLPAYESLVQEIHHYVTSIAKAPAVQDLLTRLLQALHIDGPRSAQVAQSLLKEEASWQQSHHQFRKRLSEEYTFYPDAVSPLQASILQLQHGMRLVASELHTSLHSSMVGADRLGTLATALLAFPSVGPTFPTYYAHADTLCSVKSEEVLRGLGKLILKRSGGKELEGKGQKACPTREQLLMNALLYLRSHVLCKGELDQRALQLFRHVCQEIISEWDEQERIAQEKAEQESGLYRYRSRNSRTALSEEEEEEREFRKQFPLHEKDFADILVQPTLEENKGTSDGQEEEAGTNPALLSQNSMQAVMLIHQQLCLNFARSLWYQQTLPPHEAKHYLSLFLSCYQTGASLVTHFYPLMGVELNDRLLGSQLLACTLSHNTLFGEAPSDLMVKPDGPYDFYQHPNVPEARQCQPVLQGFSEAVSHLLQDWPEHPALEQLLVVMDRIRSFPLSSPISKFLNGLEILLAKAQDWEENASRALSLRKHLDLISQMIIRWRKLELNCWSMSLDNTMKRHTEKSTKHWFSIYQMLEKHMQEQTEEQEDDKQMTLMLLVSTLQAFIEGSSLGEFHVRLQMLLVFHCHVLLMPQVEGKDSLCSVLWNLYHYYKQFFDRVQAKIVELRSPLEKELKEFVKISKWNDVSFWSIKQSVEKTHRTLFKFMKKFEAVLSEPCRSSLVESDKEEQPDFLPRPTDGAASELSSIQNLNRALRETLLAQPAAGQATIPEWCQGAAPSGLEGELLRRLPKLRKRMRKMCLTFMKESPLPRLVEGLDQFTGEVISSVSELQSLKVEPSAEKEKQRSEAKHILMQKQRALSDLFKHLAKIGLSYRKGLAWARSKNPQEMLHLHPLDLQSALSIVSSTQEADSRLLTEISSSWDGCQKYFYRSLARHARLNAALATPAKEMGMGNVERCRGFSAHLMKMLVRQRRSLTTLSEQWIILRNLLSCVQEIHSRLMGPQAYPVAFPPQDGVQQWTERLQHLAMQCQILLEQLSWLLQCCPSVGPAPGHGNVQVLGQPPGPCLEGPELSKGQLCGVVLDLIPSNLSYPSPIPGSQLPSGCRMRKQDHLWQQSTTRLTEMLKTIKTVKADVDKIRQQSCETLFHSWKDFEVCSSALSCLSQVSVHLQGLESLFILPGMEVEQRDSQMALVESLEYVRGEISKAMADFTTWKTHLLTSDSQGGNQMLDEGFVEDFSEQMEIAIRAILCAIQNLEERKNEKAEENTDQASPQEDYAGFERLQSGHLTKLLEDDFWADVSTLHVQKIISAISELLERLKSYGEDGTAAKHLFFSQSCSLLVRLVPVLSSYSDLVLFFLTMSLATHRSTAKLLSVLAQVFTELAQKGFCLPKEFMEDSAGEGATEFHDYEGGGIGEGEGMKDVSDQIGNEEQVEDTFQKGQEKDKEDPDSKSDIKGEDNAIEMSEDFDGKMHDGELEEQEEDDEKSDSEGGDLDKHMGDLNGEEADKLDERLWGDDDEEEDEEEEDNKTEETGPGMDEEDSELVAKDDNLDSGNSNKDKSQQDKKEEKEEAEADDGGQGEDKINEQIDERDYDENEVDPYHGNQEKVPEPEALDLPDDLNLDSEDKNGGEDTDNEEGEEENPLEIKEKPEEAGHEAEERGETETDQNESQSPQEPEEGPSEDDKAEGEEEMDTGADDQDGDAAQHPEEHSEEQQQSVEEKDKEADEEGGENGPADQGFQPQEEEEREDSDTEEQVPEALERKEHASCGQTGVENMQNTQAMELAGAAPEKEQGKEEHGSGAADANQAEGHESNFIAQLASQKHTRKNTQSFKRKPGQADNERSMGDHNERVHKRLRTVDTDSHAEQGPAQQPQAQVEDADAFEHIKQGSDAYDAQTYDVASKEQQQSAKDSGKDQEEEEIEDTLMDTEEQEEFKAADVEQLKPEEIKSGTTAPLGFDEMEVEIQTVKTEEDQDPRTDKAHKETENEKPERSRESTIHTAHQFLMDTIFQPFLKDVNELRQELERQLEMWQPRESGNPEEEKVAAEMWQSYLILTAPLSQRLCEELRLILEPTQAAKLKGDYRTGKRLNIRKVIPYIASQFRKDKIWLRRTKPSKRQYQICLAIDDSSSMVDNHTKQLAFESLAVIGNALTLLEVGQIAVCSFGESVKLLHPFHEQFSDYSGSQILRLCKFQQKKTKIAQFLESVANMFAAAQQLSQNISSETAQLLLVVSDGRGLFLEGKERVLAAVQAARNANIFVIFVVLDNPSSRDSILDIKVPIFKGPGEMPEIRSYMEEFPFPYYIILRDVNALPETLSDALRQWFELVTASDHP
UniProt Q8N4V1: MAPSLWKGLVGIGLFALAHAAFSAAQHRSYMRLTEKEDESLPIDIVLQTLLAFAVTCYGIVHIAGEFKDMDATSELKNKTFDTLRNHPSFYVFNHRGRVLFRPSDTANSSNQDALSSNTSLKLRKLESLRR
UniProt Q14814: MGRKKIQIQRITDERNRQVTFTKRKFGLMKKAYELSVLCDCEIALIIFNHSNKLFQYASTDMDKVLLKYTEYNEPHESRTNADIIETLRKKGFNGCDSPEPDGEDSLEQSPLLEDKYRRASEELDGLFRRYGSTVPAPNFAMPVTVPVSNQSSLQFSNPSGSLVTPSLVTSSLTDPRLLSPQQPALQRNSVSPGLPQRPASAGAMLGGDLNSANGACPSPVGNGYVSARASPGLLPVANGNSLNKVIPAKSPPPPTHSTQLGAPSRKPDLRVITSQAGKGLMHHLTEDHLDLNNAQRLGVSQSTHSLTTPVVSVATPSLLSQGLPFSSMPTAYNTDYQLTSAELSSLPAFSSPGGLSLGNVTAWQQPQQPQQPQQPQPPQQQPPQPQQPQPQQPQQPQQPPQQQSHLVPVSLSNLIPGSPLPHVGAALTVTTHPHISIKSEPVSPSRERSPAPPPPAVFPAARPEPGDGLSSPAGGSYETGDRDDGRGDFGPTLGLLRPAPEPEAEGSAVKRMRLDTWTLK
UniProt Q14696: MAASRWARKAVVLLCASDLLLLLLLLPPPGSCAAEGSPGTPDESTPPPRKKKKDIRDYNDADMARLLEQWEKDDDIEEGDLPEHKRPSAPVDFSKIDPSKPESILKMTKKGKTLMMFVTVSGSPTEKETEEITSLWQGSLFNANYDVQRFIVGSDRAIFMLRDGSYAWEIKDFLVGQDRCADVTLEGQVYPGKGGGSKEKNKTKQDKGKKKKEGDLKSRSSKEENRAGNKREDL

For MINPP1 (UniProt Q9UNW1), which “dose-dependent thermal stabilisation call” value is on record?
The value was inactive: 0.

Which “dose-dependent thermal stabilisation call” value does the source give for MRPL21 (UniProt Q7Z2W9) here?
Its value is inactive: 0.

Which “dose-dependent thermal stabilisation call” value does the source give for MRPL46 (UniProt Q9H2W6) here?
The value was inactive: 0.

MCCC2 (UniProt Q9HCC0) was tested. Which “dose-dependent thermal stabilisation call” value did it give?
Its value is inactive: 0.

MAP3K5 (UniProt Q99683) was tested. Which “dose-dependent thermal stabilisation call” value did it give?
Its value is inactive: 0.

MRPL32 (UniProt Q9BYC8) was tested. Which “dose-dependent thermal stabilisation call” value did it give?
The value was inactive: 0.

Which “dose-dependent thermal stabilisation call” value does the source give for MDN1 (UniProt Q9NU22) here?
The value was inactive: 0.

For MAP2K3 (UniProt P46734), which “dose-dependent thermal stabilisation call” value is on record?
Its value is inactive: 0.

How did the “dose-dependent thermal stabilisation call” value turn out when MCM2 (UniProt P49736) was run?
The value was inactive: 0.

Which “dose-dependent thermal stabilisation call” value does the source give for MLF1IP (UniProt Q71F23) here?
Its value is inactive: 0.

Which “dose-dependent thermal stabilisation call” value does the source give for MOBKL1B (UniProt Q9H8S9) here?
Its value is inactive: 0.

How did the “dose-dependent thermal stabilisation call” value turn out when MKRN2 (UniProt Q9H000) was run?
Its value is inactive: 0.

MORC2 (UniProt Q9Y6X9) was tested. Which “dose-dependent thermal stabilisation call” value did it give?
Its value is inactive: 0.

With METT11D1 (UniProt Q9H7H0) as the target, how does the “dose-dependent thermal stabilisation call” value read?
The value was inactive: 0.

Which “dose-dependent thermal stabilisation call” value does the source give for MRPL28 (UniProt Q13084) here?
Its value is inactive: 0.

MGC3196 was tested. Which “dose-dependent thermal stabilisation call” value did it give?
Its value is inactive: 0.

How did the “dose-dependent thermal stabilisation call” value turn out when MRFAP1 (UniProt Q9Y605) was run?
Its value is inactive: 0.

With MAPRE3 (UniProt Q9UPY8) as the target, how does the “dose-dependent thermal stabilisation call” value read?
The value was inactive: 0.

For MGST1 (UniProt P10620), which “dose-dependent thermal stabilisation call” value is on record?
The value was inactive: 0.

MAP7D3 (UniProt Q8IWC1) was tested. Which “dose-dependent thermal stabilisation call” value did it give?
The value was inactive: 0.

For MIPEP (UniProt Q99797), which “dose-dependent thermal stabilisation call” value is on record?
Its value is inactive: 0.

How did the “dose-dependent thermal stabilisation call” value turn out when MMGT1 (UniProt Q8N4V1) was run?
The value was inactive: 0.

How did the “dose-dependent thermal stabilisation call” value turn out when MPHOSPH10 (UniProt O00566) was run?
The value was inactive: 0.

Which “dose-dependent thermal stabilisation call” value does the source give for MORF4L2 (UniProt Q15014) here?
Its value is inactive: 0.

How did the “dose-dependent thermal stabilisation call” value turn out when MARVELD1 (UniProt Q9BSK0) was run?
The value was inactive: 0.

How did the “dose-dependent thermal stabilisation call” value turn out when MED23 (UniProt Q9ULK4) was run?
The value was inactive: 0.

MEF2D (UniProt Q14814) was tested. Which “dose-dependent thermal stabilisation call” value did it give?
Its value is inactive: 0.

How did the “dose-dependent thermal stabilisation call” value turn out when MAPKAPK2 (UniProt P49137) was run?
Its value is inactive: 0.

With MLKL (UniProt Q8NB16) as the target, how does the “dose-dependent thermal stabilisation call” value read?
The value was inactive: 0.

Which “dose-dependent thermal stabilisation call” value does the source give for MRPS2 (UniProt Q9Y399) here?
The value was inactive: 0.

With MRPL14 (UniProt Q6P1L8) as the target, how does the “dose-dependent thermal stabilisation call” value read?
The value was inactive: 0.

MARCKSL1 (UniProt P49006) was tested. Which “dose-dependent thermal stabilisation call” value did it give?
The value was inactive: 0.

How did the “dose-dependent thermal stabilisation call” value turn out when MESDC2 (UniProt Q14696) was run?
The value was inactive: 0.

With MED13L (UniProt Q71F56) as the target, how does the “dose-dependent thermal stabilisation call” value read?
Its value is inactive: 0.

Which “dose-dependent thermal stabilisation call” value does the source give for MRPL9 (UniProt Q9BYD2) here?
The value was inactive: 0.

How did the “dose-dependent thermal stabilisation call” value turn out when MAP1B (UniProt P46821) was run?
Its value is inactive: 0.

How did the “dose-dependent thermal stabilisation call” value turn out when MICAL3 (UniProt Q7RTP6) was run?
The value was inactive: 0.

MRPS24 (UniProt Q96EL2) was tested. Which “dose-dependent thermal stabilisation call” value did it give?
Its value is inactive: 0.
